# Assay results reported in patent US11414379B2, “SPAK kinase inhibitors as neuroprotective agents” (United States Government as represented by the Department …, priority 2018, dated 2022).
# At least one structure is not confirmed: it was looked up by name or label, or the drawing left a doubt. No end group written: not given here.
# Molecular target: T1, human SPAK 452-547(end) (Homo sapiens, UniProt Q9UEW8)
# T1 construct: Purified human SPAK 452-547(end); made in house; host or cells: E. coli
# Experiment: Fluorescence polarization, SPAK-WNK peptide interaction
# Conditions: read-out: binding affinity to purified wild-type SPAK protein
# Method: Fluorescence polarization measurements were performed at 25° C. with purified SPAK proteins in 50 mM Tris/HCl, pH 7.5, 150 mM NaCl and 2 mM DTT. The concentration of SPAK proteins was determined by measuring their absorbance at 280 nm and calculated using the molar absorption coefficient determined by the ProtParam Online tool (Gasteiger et al., 2001). All peptides ([…] [EP4543] and […] [EP4544]; SEQ ID NO:2 and SEQ ID NO:3, respectively) contained an N-terminal linker required for conjugating to the Lumio Green fluorophore ([…]; SEQ ID NO:4) and were initially re-suspended in 50 mM ammonium bicarbonate, pH 8. Peptide labelling was achieved by incubating […] of each peptide in a 0.5 ml reaction mixture of 20 μM Lumio Green in 25 mM Tris/HCl, pH 7.5, 200 mM NaCl and 5 mM 2-mercaptoethanol. Reactions were left to proceed in the dark for 2 h. […] For fluorescence polarization, mixtures were set up containing the indicated concentration of protein, 10 nM Lumio-Green-labelled peptide in a final volume of 30 μl. […] Fluorescence polarization was measured using a BMG PheraStar plate reader, with an excitation wavelength of 485 nm and an emission wavelength of 538 nm, and measurements were corrected to the fluorescent probe alone. […]
# Referring to FIG. 5A, analysis of SPAK-WNK interaction by fluorescence polarization is shown. […]
sequence,measurement,value
SEEGKPQLVGRFQVTSSK [RFXI motif-containing WNK peptide],Kd,300 nM
